By UniProt entry, the sequences of proteins in these tests, tags left out. Where a name states a change or a piece, a line headed by the entry shows the natural chain unless it says otherwise.
UniProt O82388: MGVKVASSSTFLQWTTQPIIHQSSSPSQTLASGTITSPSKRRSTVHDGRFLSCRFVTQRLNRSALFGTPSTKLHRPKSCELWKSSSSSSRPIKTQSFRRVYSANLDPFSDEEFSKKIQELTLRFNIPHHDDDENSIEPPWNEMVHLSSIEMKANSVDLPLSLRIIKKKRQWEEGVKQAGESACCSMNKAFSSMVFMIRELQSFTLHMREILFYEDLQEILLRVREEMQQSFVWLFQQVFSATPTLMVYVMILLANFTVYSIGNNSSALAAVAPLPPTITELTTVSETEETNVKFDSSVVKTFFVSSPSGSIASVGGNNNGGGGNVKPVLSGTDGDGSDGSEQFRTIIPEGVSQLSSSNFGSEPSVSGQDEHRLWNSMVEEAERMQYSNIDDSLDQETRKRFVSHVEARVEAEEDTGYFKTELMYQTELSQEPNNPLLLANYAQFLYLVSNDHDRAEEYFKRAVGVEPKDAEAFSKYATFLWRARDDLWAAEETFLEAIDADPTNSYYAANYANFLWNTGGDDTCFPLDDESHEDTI

According to article PMC3458939:

Target: CPK3-eGFP (Arabidopsis thaliana) (UniProt Q42479)
Assay: FRET or BRET; FRET-FLIM in Nicotiana benthamiana epidermal leaf cells; donor CPK3-eGFP, acceptor N-terminal mRFP or C-terminal mCherry fusion; average GFP lifetime in a cytoplasmic sector (nucleus for HMGB5); at least five cells per sample

Substance: mRFP-AT2G29670 (from UniProt O82388)
- binding: binds

Results are given in words; binding and its absence hold for the method and conditions named. In cells and extracts the contact can be indirect. A result given as binding can be weak or reduced; the word gives no strength.
